No constants are given. Whether binding was seen depends on the method and setting. Binding seen in cells or lysates may run through a third protein. Some entries that bind do so weakly or less than the wild type.
T1: Menin (human (endogenous in LNCaP, PNT1A, PC-3)) (UniProt O00255)
T1 sequence: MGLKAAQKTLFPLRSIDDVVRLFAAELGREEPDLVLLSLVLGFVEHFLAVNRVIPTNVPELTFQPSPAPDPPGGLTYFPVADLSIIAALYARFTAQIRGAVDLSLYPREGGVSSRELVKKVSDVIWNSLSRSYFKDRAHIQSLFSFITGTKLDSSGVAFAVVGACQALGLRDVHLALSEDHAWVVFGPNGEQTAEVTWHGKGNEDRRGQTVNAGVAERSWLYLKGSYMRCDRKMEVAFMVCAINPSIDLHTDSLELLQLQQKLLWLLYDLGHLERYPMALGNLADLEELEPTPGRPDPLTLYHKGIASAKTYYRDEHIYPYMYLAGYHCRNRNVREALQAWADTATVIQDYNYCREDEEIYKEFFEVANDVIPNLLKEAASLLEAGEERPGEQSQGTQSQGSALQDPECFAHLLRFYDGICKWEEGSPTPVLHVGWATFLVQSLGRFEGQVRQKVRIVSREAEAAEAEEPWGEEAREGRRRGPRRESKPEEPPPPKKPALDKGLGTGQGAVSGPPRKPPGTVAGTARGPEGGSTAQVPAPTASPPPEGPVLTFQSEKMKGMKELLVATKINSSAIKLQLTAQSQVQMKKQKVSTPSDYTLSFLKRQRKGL

Protein sequences, listed by entry. Tags and fused reporters are not part of them.
UniProt P04792: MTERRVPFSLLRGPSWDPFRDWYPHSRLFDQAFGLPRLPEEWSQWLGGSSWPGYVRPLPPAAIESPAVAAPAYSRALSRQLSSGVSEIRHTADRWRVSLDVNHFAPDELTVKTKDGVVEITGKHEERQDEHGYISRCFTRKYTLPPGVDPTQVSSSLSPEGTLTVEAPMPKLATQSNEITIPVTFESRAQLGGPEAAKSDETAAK

B1: SNW Domain Containing 1 (protein, UniProt Q13573 1-536)
chain: MALTSFLPAPTQLSQDQLEAEEKARSQRSRQTSLVSSRREPPPYGYRKGWIPRLLEDFGDGGAFPEIHVAQYPLDMGRKKKMSNALAIQVDSEGKIKYDAIARQGQSKDKVIYSKYTDLVPKEVMNADDPDLQRPDEEAIKEITEKTRVALEKSVSQKVAAAMPVRAADKLAPAQYIRYTPSQQGVAFNSGAKQRVIRMVEMQKDPMEPPRFKINKKIPRGPPSPPAPVMHSPSRKMTVKEQQEWKIPPCISNWKNAKGYTIPLDKRLAADGRGLQTVHINENFAKLAEALYIADRKAREAVEMRAQVERKMAQKEKEKHEEKLREMAQKARERRAGIKTHVEKEDGEARERDEIRHDRRKERQHDRNLSRAAPDKRSKLQRNENRDISEVIALGVPNPRTSNEVQYDQRLFNQSKGMDSGFAGGEDEIYNVYDQAWRGGKDMAQSIYRPSKNLDKDMYGDDLEARIKTNRFVPDKEFSGSDRRQRGREGPVQFEEDPFGLDKFLEEAKQHGGSKRPSDSSRPKEHEHEGKKRRKE

Experiments:
[1] = target: T1, Menin (human (endogenous in LNCaP, PNT1A, PC-3)); experiment: co-IP; LNCaP-Mock and LNCaP-HSP27 cell lysates; Menin immunoprecipitated with mouse anti-Menin, mouse IgG as control; blotted with anti-Menin or anti-HSP27
[2] = target: T1, Menin (human (endogenous in LNCaP, PNT1A, PC-3)); experiment: co-IP; PNT1A, LNCaP and PC3 cell lysates; Menin immunoprecipitated with anti-Menin, IgG as control; blotted with anti-Menin, anti-SNW1 or anti-ERH

| Molecule | binding [1] | binding [2] |
| --- | --- | --- |
| heat shock protein 27 (from UniProt P04792 1-205) | binds | – |
| B1 | – | binds |
